Laboratory results published in PMC5702609.
Read-outs that look alike come from different tables or passages of the source. Results are given in words; binding and its absence hold for the method and conditions named. In cells and extracts the contact can be indirect. Here binding means that the protein was enriched with, or labelled near, the bait; the list need not be complete. Each block holds one molecule with its values, some of them ahead of it.

Protein sequences, listed by entry. Tags and fused reporters are not part of them.
UniProt P14126: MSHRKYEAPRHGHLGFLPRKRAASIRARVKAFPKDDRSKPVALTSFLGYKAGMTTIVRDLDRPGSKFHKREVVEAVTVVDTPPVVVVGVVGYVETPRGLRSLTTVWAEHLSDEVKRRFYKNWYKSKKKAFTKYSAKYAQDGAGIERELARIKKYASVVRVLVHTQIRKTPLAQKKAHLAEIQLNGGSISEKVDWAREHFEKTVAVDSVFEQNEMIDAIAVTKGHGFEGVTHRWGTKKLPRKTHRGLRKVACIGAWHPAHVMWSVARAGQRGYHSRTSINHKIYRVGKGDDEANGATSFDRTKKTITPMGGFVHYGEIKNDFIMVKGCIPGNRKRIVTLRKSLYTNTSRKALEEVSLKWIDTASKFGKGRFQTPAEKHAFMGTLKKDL

Columns and labels:
[1] = target: T1, TAPF-Nop53 (S. cerevisiae) (UniProt Q12080); experiment: affinity purification with mass spectrometry + co-sedimentation; pre-60S particles (ribonucleoprotein with 7S pre-rRNA) tandem affinity purified via TAPF-Nop53 from yeast, incubated with ATP only (mock), 10-40% glycerol gradient in 100 mM NaCl, 50 mM Tris pH 7.5, 3 mM MgCl2, 0.01% NP-40; fractions by SDS-PAGE and Coomassie, western blot (Rpl3, Cic1, Nop7) and mass spectrometry
T1 sequence: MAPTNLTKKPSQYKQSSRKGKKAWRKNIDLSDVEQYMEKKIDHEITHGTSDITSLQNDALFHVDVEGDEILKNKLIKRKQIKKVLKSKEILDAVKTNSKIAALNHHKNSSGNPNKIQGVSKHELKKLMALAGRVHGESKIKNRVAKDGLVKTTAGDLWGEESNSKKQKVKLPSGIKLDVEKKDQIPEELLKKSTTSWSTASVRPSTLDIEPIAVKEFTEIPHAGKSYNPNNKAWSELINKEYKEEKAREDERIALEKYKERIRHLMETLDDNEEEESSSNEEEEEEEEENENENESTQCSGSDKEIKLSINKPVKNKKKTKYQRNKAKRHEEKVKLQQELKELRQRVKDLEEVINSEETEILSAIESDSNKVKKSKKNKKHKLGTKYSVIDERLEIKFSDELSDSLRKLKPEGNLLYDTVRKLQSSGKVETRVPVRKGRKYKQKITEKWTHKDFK

[2] = target: T2, Rrp6-FTpA (S. cerevisiae), Q12149; experiment: affinity purification with mass spectrometry; tandem affinity purification of Rrp6-FTpA from yeast lysate (IgG beads, TEV elution at 16 °C, Flag beads, Flag peptide elution); 100 mM NaCl, 50 mM Tris pH 7.5, 1.5 mM MgCl2, 5% glycerol, NP-40; eluate by SDS-PAGE and Coomassie, bands identified by mass spectrometry; conditions: remark: other sources report otherwise
T2 chain: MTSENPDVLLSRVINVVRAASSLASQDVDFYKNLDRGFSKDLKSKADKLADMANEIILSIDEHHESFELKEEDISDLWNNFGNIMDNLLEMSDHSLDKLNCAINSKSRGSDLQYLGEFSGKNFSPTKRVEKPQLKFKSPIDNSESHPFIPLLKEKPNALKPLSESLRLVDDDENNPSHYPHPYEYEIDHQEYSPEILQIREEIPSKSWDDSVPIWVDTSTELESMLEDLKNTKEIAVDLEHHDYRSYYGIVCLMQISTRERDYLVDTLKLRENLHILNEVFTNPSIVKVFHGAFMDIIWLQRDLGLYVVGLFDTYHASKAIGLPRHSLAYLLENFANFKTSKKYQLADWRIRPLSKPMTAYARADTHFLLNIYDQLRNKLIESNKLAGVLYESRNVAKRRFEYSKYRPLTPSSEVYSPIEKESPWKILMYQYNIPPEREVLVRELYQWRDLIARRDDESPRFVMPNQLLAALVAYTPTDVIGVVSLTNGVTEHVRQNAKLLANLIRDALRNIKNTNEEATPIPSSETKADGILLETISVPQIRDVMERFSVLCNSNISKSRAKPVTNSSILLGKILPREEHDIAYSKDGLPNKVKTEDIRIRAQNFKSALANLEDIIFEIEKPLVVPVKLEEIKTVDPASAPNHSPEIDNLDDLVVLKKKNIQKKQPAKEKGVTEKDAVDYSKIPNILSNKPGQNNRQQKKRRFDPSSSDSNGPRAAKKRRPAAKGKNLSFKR

[3] = target: T3, Rrp6-FTpA (S. cerevisiae) (UniProt Q12149); experiment: as above
T3 sequence: T2 chain

[4] = target: T1, TAPF-Nop53 (S. cerevisiae); experiment: affinity purification with mass spectrometry + co-sedimentation; pre-60S particles (ribonucleoprotein with 7S pre-rRNA) tandem affinity purified via TAPF-Nop53 from yeast, incubated with ATP only (mock), 10-40% glycerol gradient in 100 mM NaCl, 50 mM Tris pH 7.5, 3 mM MgCl2, 0.01% NP-40; fractions by SDS-PAGE and Coomassie, western blot (Rpl3, Cic1, Nop7) and mass spectrometry; remark: listed apart in the source

Molecule: Rpl3 (from UniProt P14126 1-387)
binding [1]: binds

B1: Mtr4 helicase, P47047 1-1073 (enzyme)
chain: MDSTDLFDVFEETPVELPTDSNGEKNADTNVGDTPDHTQDKKHGLEEEKEEHEENNSENKKIKSNKSKTEDKNKKVVVPVLADSFEQEASREVDASKGLTNSETLQVEQDGKVRLSHQVRHQVALPPNYDYTPIAEHKRVNEARTYPFTLDPFQDTAISCIDRGESVLVSAHTSAGKTVVAEYAIAQSLKNKQRVIYTSPIKALSNQKYRELLAEFGDVGLMTGDITINPDAGCLVMTTEILRSMLYRGSEVMREVAWVIFDEVHYMRDKERGVVWEETIILLPDKVRYVFLSATIPNAMEFAEWICKIHSQPCHIVYTNFRPTPLQHYLFPAHGDGIYLVVDEKSTFREENFQKAMASISNQIGDDPNSTDSRGKKGQTYKGGSAKGDAKGDIYKIVKMIWKKKYNPVIVFSFSKRDCEELALKMSKLDFNSDDEKEALTKIFNNAIALLPETDRELPQIKHILPLLRRGIGIHHSGLLPILKEVIEILFQEGFLKVLFATETFSIGLNMPAKTVVFTSVRKWDGQQFRWVSGGEYIQMSGRAGRRGLDDRGIVIMMIDEKMEPQVAKGMVKGQADRLDSAFHLGYNMILNLMRVEGISPEFMLEHSFFQFQNVISVPVMEKKLAELKKDFDGIEVEDEENVKEYHEIEQAIKGYREDVRQVVTHPANALSFLQPGRLVEISVNGKDNYGWGAVVDFAKRINKRNPSAVYTDHESYIVNVVVNTMYIDSPVNLLKPFNPTLPEGIRPAEEGEKSICAVIPITLDSIKSIGNLRLYMPKDIRASGQKETVGKSLREVNRRFPDGIPVLDPVKNMKIEDEDFLKLMKKIDVLNTKLSSNPLTNSMRLEELYGKYSRKHDLHEDMKQLKRKISESQAVIQLDDLRRRKRVLRRLGFCTPNDIIELKGRVACEISSGDELLLTELIFNGNFNELKPEQAAALLSCFAFQERCKEAPRLKPELAEPLKAMREIAAKIAKIMKDSKIEVVEKDYVESFRHELMEVVYEWCRGATFTQICKMTDVYEGSLIRMFKRLEELVKELVDVANTIGNSSLKEKMEAVLKLIHRDIVSAGSLYL
binding [2]: binds

B3: Nop15 (protein, UniProt P53927 1-220)
chain: MVKSTSKTSTKETVTKQPTEEKPIQEKEELALETSSSSSDEEDEKDEDEIEGLAASDDEQSGTHKIKRLNPKKQANEKKSKDKKTLEEYSGIIYVSRLPHGFHEKELSKYFAQFGDLKEVRLARNKKTGNSRHYGFLEFVNKEDAMIAQESMNNYLLMGHLLQVRVLPKGAKIEKLYKYKKRVLVEKGITKPVKQLKDNMKQKHEERIKKLAKSGIEFKW
binding [4]: binds

B5: Cic1/Nsa3 (protein, UniProt P38779 1-376)
chain: MAKKSNSKKSTPVSTPSKEKKKVIEKKSSTAIPRERVIKAVNELIKFTSKPQDENNEEGNNGKKNLLEDDEEELKKDLQLIVVNNKSFTGTSKSFKLKLLNVKHSFYKPWKEASATAVKDFKVLLILKDSDIKKVSEDDLFDQLDSEGIKVDEIICGKDLKTVYKAYEARNAFISQFSLILADDSIVTSLPKLMGGKAYNKVETTPISIRTHANKEFSLTTLTNNIKKVYMNQLPVKLPRGTTLNVHLGNLEWLRPEEFVDNVELISEQLIKAYQIRSIFIKTNRSPVLPLYYNQDVLDELEAKKDKIEETHEDDMVTIDGVQVHLSTFNKGLMEIANPSELGSIFSKQINNAKKRSSSELEKESSESEAVKKAKS
binding [4]: binds

B6: Rrp44 (enzyme, UniProt Q08162 1-1001)
chain: MSVPAIAPRRKRLADGLSVTQKVFVRSRNGGATKIVREHYLRSDIPCLSRSCTKCPQIVVPDAQNELPKFILSDSPLELSAPIGKHYVVLDTNVVLQAIDLLENPNCFFDVIVPQIVLDEVRNKSYPVYTRLRTLCRDSDDHKRFIVFHNEFSEHTFVERLPNETINDRNDRAIRKTCQWYSEHLKPYDINVVLVTNDRLNREAATKEVESNIITKSLVQYIELLPNADDIRDSIPQMDSFDKDLERDTFSDFTFPEYYSTARVMGGLKNGVLYQGNIQISEYNFLEGSVSLPRFSKPVLIVGQKNLNRAFNGDQVIVELLPQSEWKAPSSIVLDSEHFDVNDNPDIEAGDDDDNNESSSNTTVISDKQRRLLAKDAMIAQRSKKIQPTAKVVYIQRRSWRQYVGQLAPSSVDPQSSSTQNVFVILMDKCLPKVRIRTRRAAELLDKRIVISIDSWPTTHKYPLGHFVRDLGTIESAQAETEALLLEHDVEYRPFSKKVLECLPAEGHDWKAPTKLDDPEAVSKDPLLTKRKDLRDKLICSIDPPGCVDIDDALHAKKLPNGNWEVGVHIADVTHFVKPGTALDAEGAARGTSVYLVDKRIDMLPMLLGTDLCSLKPYVDRFAFSVIWELDDSANIVNVNFMKSVIRSREAFSYEQAQLRIDDKTQNDELTMGMRALLKLSVKLKQKRLEAGALNLASPEVKVHMDSETSDPNEVEIKKLLATNSLVEEFMLLANISVARKIYDAFPQTAMLRRHAAPPSTNFEILNEMLNTRKNMSISLESSKALADSLDRCVDPEDPYFNTLVRIMSTRCMMAAQYFYSGAYSYPDFRHYGLAVDIYTHFTSPIRRYCDVVAHRQLAGAIGYEPLSLTHRDKNKMDMICRNINRKHRNAQFAGRASIEYYVGQVMRNNESTETGYVIKVFNNGIVVLVPKFGVEGLIRLDNLTEDPNSAAFDEVEYKLTFVPTNSDKPRDVYVFDKVEVQVRSVMDPITSKRKAELLLK
binding [3]: binds

Other lines, results leading:

binding [3]: binds
B2: Mpp6 (protein, UniProt P53725 1-186)
chain: MSANNGVTGKLSSRVMNMKFMKFGKTDDEESSNSNTPSNINSDVEPIEQKGKLFGLDDSAWDLNSYKDDLKKISGKEKKKVKRVVYKKRPNLIISNVGYSELRKPEGVISGRKTFGDNSDDSGSRKRKFDEGEQNEDEKRDAKDKEFTGSQDDGEDEYDLDKLFKDSIKKKKTNHNGKNKNRNSKK

binding [4]: binds
B4: Nog1 (protein, UniProt Q02892 1-647)
chain: MQLSWKDIPTVAPANDLLDIVLNRTQRKTPTVIRPGFKITRIRAFYMRKVKYTGEGFVEKFEDILKGFPNINDVHPFHRDLMDTLYEKNHYKISLAAISRAKSLVEQVARDYVRLLKFGQSLFQCKQLKRAALGRMATIVKKLRDPLAYLEQVRQHIGRLPSIDPNTRTLLICGYPNVGKSSFLRCITKSDVDVQPYAFTTKSLYVGHFDYKYLRFQAIDTPGILDRPTEEMNNIEMQSIYAIAHLRSCVLYFMDLSEQCGFTIEAQVKLFHSIKPLFANKSVMVVINKTDIIRPEDLDEERAQLLESVKEVPGVEIMTSSCQLEENVMEVRNKACEKLLASRIENKLKSQSRINNVLNKIHVAQPQARDDVKRTPFIPESVKNLKKYDPEDPNRRKLARDIEAENGGAGVFNVNLKDKYLLEDDEWKNDIMPEILDGKNVYDFLDPEIAAKLQALEEEEEKLENEGFYNSDDEEEIYDGFEASEVDDIKEKAAWIRNRQKTMIAEARNRKSLKNKAIMPRSKLTKSFGKMEEHMSTLGHDMSALQDKQNRAARKNRYVERGSDVVFGDQDALTASTENGVKLRQTDRLLDGVADGSMRSKADRMAKMERRERNRHAKQGESDRHNAVSLSKHLFSGKRGVGKTDFR

binding [4]: binds
B7: Rlp7 (protein, UniProt P40693 1-322)
chain: MSSTQDSKAQTLNSNPEILLRKRRNADRTRIERQELAKKKREEQIKKKRSNKNKFVRAESIVAKTLATSREKERIKRVSILEDKKAKNETQHIASGKDFILKITEKANGAEENSVDLEETEEEEDDGLIREKTTYDGKPALLFIVRVRGPLAVNIPNKAFKILSLLRLVETNTGVFVKLTKNVYPLLKVIAPYVVIGKPSLSSIRSLIQKRGRIIYKGENEAEPHEIVLNDNNIVEEQLGDHGIICVEDIIHEIATMGESFSVCNFFLQPFKLNREVSGFGSLNRLRKIKQREAESRTRQFSNAATAPVIEVDIDSLLAKLN
